Experimental findings from PubChem BioAssay AID248 (DTP/NCI, 2004) are described below.

The experiment concerns L1210 leukemia ip in BDF1 mice, survival T/C. Briefly: NCI In Vivo Anticancer Drug Screen. Data for tumor model L1210 Leukemia (intraperitoneal) in B6D2F1 (BDF1) mice. Conditions: T/C endpoint: mean survival time, higher T/C = longer survival.
The mark [1] stands for this setting: dose: 400.0 mg/kg/injection, schedule: Q01DX009 (ip), vehicle: Klucel (hydroxypropylcellulose) (HPC).

Each structure is given as a SMILES string. The list does not hold the whole screen: it gathers tests that were run many times, whatever their T/C, doses with no T/C, and many T/C values between a quarter and a half above the control. Other doses and runs of a compound stand elsewhere. T/C gives the treated animals as a percentage of the vehicle group. Some entries give survivors of the animals treated and no T/C: the source holds a T/C of zero for them, seemingly a mark for toxic or unscored doses. Some survivor counts are full or nearly so, which does not show that the dose was tolerated: the source hardly ever lists a survival T/C far under the control, and the zero likely stands for such cases as well. Survivors were counted at the toxicity check, usually on the fifth day, unless a day is given; later deaths do not show. Schedule codes are those of the source, taken here to give the interval after Q, in days (D) or hours (H), and the number of doses after X. Where survival is the endpoint, the PubChem record calls one and a half times the control and up active, and a quarter to a half above the control has no call in these data; cut-offs in other NCI protocols can differ. Some T/C values carry the count of animals alive at the toxicity check (mostly the fifth day); without a count, all were alive then.

Consider `CN(C)c1ccc(/C=N\NC(=S)Nc2ccccc2)c(Cl)c1`, for which the survivor count (dose: 100.0 mg/kg/injection, schedule: Q04DX003 (ip), vehicle: acetone) is 6 of 6; the survivor count (dose: 200.0 mg/kg/injection, schedule: Q04DX003 (ip), vehicle: acetone) is 6 of 6; the survivor count (dose: 255.0 mg/kg/injection, schedule: Q01DX009 (ip), vehicle: saline with Tween-80) is reported as 6 of 6; the survivor count (dose: 385.0 mg/kg/injection, schedule: Q01DX009 (ip), vehicle: saline with Tween-80) was 6 of 6; the survivor count (dose: 400.0 mg/kg/injection, schedule: Q04DX003 (ip), vehicle: acetone) is on record as 6 of 6.
For `CC(=O)Nc1c(C)c(NC(C)=O)c(C)c(NC(C)=O)c1C`, the survivor count is reported as 5 of 6 (dose: 150.0 mg/kg/injection, schedule: Q01DX009 (ip), vehicle: Klucel (hydroxypropylcellulose) (HPC)) and 1 of 6 (dose: 300.0 mg/kg/injection, schedule: Q01DX009 (ip), vehicle: Klucel (hydroxypropylcellulose) (HPC)).
Consider `C1=CC2(C=C1)OC21CCC2(C=CC3(C2)OC3C2CCCCC2)CC1` (centres undefined), for which the survivor count (dose: 200.0 mg/kg/injection, schedule: Q01DX009 (ip), vehicle: saline with Tween-80) is reported as 3 of 3.
In the case of `Cc1cc(NC(=O)Nc2ccc(Cl)cc2C)no1`, the survivor count is given as 6 of 6 (dose: 100.0 mg/kg/injection, schedule: Q01DX009 (ip), vehicle: Klucel (hydroxypropylcellulose) (HPC)); 6 of 6 (dose: 200.0 mg/kg/injection, schedule: Q01DX009 (ip), vehicle: Klucel (hydroxypropylcellulose) (HPC)); 6 of 6 under setting [1].
As to `COC(=O)c1ccc[n+](C)c1`, the survivor count (dose: 400.0 mg/kg/injection, schedule: Q04DX002 (ip), vehicle: saline) is 1 of 3.
Consider `CCCCCCCCCCCCC1CC(=O)OC1=O` (centres undefined), for which the survivor count under setting [1] is 2 of 6 and the survivor count (dose: 400.0 mg/kg/injection, schedule: Q04DX003 (ip), vehicle: Klucel (hydroxypropylcellulose) (HPC)) was 0 of 6.
`O=NN(CCCl)C(=O)Nc1cccc([N+](=O)[O-])c1`: for the setting “dose: 8.0 mg/kg/injection, schedule: Q01DX001 (ip), vehicle: carboxymethylcellulose (CMC)”, the T/C is 143 % of control. The survivor count runs as follows: (dose: 93.0 mg/kg/injection, schedule: Q01DX001 (ip), vehicle: carboxymethylcellulose (CMC)) 4 of 6; (dose: 187.0 mg/kg/injection, schedule: Q01DX001 (ip), vehicle: carboxymethylcellulose (CMC)) 0 of 6; (dose: 375.0 mg/kg/injection, schedule: Q01DX001 (ip), vehicle: carboxymethylcellulose (CMC)) 0 of 6.
For `N#CC(CCCc1cccc(N2CN=C(N)N=C2N)c1)c1ccccc1` (centres undefined), the survivor count by setting is: (dose: 100.0 mg/kg/injection, schedule: Q01DX001 (ip), vehicle: saline) 0 of 6; (dose: 200.0 mg/kg/injection, schedule: Q01DX001 (ip), vehicle: saline) 0 of 6.
`CC(C)CC(NC(=O)c1ccccc1)C(=O)O` (centres undefined): where the note is “dose: 100.0 mg/kg/injection, schedule: Q01DX009 (ip), vehicle: saline with Tween-80”, the survivor count is 6 of 6.
`CCOC(=O)/C=C/C(=O)O.[Cu+2]`: the survivor count by setting is: (dose: 1.56 mg/kg/injection, schedule: Q04DX003 (ip), vehicle: saline) 3 of 3; (dose: 12.5 mg/kg/injection, schedule: Q04DX003 (ip), vehicle: saline) 3 of 3; (dose: 25.0 mg/kg/injection, schedule: Q04DX003 (ip), vehicle: saline) 1 of 3; (dose: 100.0 mg/kg/injection, schedule: Q04DX003 (ip), vehicle: saline) 0 of 4; (dose: 200.0 mg/kg/injection, schedule: Q04DX003 (ip), vehicle: saline) 0 of 4; (dose: 400.0 mg/kg/injection, schedule: Q04DX003 (ip), vehicle: saline) 0 of 4.
As for `O=NN(CCCl)C(=O)Nc1ccc2c(c1)Cc1ccccc1-2`, the T/C reads like this: (dose: 8.8 mg/kg/injection, schedule: Q01DX009 (ip), vehicle: carboxymethylcellulose (CMC)) 129 % of control; (dose: 12.5 mg/kg/injection, schedule: Q01DX001 (ip), vehicle: carboxymethylcellulose (CMC)) 125 % of control; (dose: 13.3 mg/kg/injection, schedule: Q01DX009 (ip), vehicle: carboxymethylcellulose (CMC)) 136 % of control; (dose: 20.0 mg/kg/injection, schedule: Q01DX009 (ip), vehicle: carboxymethylcellulose (CMC)) 136 % of control; (dose: 25.0 mg/kg/injection, schedule: Q01DX001 (ip), vehicle: carboxymethylcellulose (CMC)) 138 % of control; (dose: 30.0 mg/kg/injection, schedule: Q01DX009 (ip), vehicle: carboxymethylcellulose (CMC)) 148 % of control. Further, the T/C runs as follows: (dose: 50.0 mg/kg/injection, schedule: Q01DX001 (ip), vehicle: carboxymethylcellulose (CMC)) 132 % of control; (dose: 50.0 mg/kg/injection, schedule: Q01DX001 (ip), vehicle: other) 127 % of control; (dose: 75.0 mg/kg/injection, schedule: Q01DX001 (ip), vehicle: carboxymethylcellulose (CMC)) 135 % of control; (dose: 75.0 mg/kg/injection, schedule: Q01DX001 (ip), vehicle: other) 134 % of control [4 of 6 alive]; (dose: 150.0 mg/kg/injection, schedule: Q01DX001 (ip), vehicle: carboxymethylcellulose (CMC)) 146 % of control. Further, the survivor count (dose: 75.0 mg/kg/injection, schedule: Q01DX009 (ip), vehicle: other) is given as 4 of 6; the survivor count (dose: 150.0 mg/kg/injection, schedule: Q01DX001 (ip), vehicle: other) is given as 3 of 6; the survivor count (dose: 225.0 mg/kg/injection, schedule: Q01DX001 (ip), vehicle: other) is reported as 2 of 6.
As to `c1ccc(N=C(Nc2ccccc2)Nc2ccccc2)cc1`, the survivor count is given as 1 of 3 (dose: 200.0 mg/kg/injection, schedule: Q04DX002 (ip), vehicle: Klucel (hydroxypropylcellulose) (HPC)) and 0 of 3 (dose: 400.0 mg/kg/injection, schedule: Q04DX002 (ip), vehicle: Klucel (hydroxypropylcellulose) (HPC)).
Take `CN1C2CCC1CC(OC1c3ccccc3CCc3ccccc31)C2` (centres undefined): the survivor count (dose: 100.0 mg/kg/injection, schedule: Q01DX009 (ip), vehicle: saline) is reported as 0 of 6.
